The exact form of at least one protein or probe is not confirmed.
Tests used:
[1] = system: FXR/RXR heterodimer (cells); experiment: activity in cells; settings: luciferase reporter activated by CDCA; antagonised by clotrimazole, Compound A and Compound B; protein in cells; only the site is given
[2] = system: FXR/RXRm heterodimer RXRalpha Asp322Pro (also printed Asp332Pro); experiment: EMSA; settings: RXRm heterodimer; GST-GRIP1 recruitment; same buffer, RT; protein translated in vitro; protein details: FXR + mutant human RXRalpha
FXR/RXR heterodimer = experiment: EMSA; settings: ligand-dependent GST-GRIP1 recruitment on probe; 10 mM Tris pH 8, 50 mM KCl, 6% glycerol, 0.05% NP-40, 1 mM DTT, poly dI-dC, RT; protein translated in vitro

| Sequence | activity on this sequence [1] | binding result [2] | binding result (FXR/RXR heterodimer) |
| --- | --- | --- | --- |
| AGCTCGATGGACAAGTGCATTGAACCCTTGAAGCTT (double strand) [hsp27 EcRE x6 reporter] | active | – | – |
| AGCTCGATGGACAAGTGCATTGAACCCTTGAAGCTT (double strand) [hsp27 EcRE probe] | – | binds | binds |
